Experimental data from doi:10.1101/2024.05.08.593233.
Read-outs that look alike come from different tables or passages of the source. No constants are given. Whether binding was seen depends on the method and setting. Binding seen in cells or lysates may run through a third protein. A yes stands for co-enrichment or nearness to the bait. Other partners may have been found. For some of these results: Where a sequence is shown, tags or fusion partners need not be part of it. Values belong to the molecule of their own block, whether it stands above or below them.

Sequences of proteins named here, by UniProt entry; tags and fusion partners are left off.
UniProt Q9CR39: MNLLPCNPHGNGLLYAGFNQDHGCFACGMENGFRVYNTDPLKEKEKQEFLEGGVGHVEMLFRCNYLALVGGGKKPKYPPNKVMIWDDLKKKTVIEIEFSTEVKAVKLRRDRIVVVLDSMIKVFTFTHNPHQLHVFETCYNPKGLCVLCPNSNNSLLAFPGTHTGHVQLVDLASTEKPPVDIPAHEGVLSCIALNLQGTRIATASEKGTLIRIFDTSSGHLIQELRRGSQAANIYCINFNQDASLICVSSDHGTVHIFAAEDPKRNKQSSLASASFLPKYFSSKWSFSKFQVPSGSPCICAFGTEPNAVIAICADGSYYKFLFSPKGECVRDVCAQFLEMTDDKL
UniProt Q9CX00: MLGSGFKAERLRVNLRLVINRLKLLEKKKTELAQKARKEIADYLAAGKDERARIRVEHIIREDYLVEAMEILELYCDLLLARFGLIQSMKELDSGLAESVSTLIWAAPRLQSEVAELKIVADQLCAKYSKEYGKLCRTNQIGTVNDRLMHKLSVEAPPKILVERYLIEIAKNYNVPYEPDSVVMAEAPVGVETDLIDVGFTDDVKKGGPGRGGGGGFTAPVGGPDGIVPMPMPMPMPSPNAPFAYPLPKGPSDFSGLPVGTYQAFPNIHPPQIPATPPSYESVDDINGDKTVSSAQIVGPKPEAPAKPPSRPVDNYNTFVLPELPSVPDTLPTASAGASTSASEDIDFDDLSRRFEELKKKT
UniProt Q99LI8: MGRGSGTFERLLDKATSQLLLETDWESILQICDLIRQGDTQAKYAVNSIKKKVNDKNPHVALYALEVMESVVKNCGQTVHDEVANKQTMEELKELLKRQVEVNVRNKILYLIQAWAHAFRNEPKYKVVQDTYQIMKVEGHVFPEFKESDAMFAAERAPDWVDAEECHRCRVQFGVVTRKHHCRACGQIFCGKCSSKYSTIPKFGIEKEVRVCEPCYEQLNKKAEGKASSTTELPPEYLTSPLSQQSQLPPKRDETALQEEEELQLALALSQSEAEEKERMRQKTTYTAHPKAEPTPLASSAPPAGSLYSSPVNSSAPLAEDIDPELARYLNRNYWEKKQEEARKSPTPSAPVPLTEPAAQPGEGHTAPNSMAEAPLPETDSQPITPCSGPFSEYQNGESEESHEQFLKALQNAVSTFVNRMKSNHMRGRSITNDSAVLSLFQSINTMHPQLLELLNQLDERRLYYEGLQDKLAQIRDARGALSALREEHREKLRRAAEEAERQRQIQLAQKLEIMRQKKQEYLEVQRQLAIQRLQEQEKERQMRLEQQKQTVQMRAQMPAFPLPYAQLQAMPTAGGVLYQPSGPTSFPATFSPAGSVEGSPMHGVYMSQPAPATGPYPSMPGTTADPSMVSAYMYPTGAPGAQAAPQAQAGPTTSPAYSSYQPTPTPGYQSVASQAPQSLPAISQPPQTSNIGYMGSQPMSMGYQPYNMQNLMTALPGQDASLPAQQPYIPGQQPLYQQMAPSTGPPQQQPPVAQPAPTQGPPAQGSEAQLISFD

How the values were obtained:
Assay in all cases: affinity purification with mass spectrometry
[1] = target: T1, GFP-WIPI2d (stably expressed in MEFs) (UniProt Q9Y4P8)
T1 sequence: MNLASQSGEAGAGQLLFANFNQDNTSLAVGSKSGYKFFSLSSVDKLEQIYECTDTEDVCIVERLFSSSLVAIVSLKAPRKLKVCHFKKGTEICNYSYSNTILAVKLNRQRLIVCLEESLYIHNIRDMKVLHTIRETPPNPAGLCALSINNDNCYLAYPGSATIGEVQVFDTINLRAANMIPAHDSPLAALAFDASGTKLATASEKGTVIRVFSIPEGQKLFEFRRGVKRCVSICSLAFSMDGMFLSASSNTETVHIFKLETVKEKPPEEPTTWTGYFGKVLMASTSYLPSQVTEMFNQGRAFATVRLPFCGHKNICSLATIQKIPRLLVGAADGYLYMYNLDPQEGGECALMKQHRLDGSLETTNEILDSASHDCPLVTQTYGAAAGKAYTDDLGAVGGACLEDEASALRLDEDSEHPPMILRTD

[2] = target: T2, GFP-Rubicon (mouse Rubicon, stably expressed in MEFs) (mouse) (UniProt Q80U62)
T2 sequence: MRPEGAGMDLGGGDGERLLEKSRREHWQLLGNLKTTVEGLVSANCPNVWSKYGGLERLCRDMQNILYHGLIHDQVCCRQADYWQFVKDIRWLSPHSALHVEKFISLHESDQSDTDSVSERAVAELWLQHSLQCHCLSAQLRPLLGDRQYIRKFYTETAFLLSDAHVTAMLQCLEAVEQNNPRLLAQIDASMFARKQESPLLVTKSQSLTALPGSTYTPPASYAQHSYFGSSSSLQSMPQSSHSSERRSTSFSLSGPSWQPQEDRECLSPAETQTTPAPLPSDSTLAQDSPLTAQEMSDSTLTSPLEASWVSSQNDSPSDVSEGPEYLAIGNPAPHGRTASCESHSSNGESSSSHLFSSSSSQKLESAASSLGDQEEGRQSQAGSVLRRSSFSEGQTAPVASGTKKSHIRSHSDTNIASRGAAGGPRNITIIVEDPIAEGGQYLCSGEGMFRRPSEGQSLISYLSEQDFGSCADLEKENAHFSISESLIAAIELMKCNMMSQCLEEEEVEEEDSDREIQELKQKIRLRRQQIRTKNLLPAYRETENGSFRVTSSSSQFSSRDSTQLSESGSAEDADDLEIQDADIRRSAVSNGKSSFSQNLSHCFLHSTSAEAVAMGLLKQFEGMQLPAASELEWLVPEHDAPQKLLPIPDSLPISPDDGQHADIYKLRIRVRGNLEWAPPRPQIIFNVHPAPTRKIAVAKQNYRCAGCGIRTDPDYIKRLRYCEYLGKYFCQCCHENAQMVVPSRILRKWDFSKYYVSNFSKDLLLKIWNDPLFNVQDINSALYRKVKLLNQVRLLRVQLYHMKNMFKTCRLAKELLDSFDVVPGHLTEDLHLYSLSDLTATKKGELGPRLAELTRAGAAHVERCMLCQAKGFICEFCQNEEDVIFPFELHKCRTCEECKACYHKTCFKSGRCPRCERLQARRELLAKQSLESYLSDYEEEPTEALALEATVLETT

[3] = target: T1, GFP-WIPI2d (stably expressed in MEFs); remark: listed apart in the source
[4] = target: T2, GFP-Rubicon (mouse Rubicon, stably expressed in MEFs) (mouse); remark: listed apart in the source
[5] = target: T3, Rubicon (bait of the interactome analysis in HeLa Kyoto cells) (UniProt Q92622)
T3 sequence: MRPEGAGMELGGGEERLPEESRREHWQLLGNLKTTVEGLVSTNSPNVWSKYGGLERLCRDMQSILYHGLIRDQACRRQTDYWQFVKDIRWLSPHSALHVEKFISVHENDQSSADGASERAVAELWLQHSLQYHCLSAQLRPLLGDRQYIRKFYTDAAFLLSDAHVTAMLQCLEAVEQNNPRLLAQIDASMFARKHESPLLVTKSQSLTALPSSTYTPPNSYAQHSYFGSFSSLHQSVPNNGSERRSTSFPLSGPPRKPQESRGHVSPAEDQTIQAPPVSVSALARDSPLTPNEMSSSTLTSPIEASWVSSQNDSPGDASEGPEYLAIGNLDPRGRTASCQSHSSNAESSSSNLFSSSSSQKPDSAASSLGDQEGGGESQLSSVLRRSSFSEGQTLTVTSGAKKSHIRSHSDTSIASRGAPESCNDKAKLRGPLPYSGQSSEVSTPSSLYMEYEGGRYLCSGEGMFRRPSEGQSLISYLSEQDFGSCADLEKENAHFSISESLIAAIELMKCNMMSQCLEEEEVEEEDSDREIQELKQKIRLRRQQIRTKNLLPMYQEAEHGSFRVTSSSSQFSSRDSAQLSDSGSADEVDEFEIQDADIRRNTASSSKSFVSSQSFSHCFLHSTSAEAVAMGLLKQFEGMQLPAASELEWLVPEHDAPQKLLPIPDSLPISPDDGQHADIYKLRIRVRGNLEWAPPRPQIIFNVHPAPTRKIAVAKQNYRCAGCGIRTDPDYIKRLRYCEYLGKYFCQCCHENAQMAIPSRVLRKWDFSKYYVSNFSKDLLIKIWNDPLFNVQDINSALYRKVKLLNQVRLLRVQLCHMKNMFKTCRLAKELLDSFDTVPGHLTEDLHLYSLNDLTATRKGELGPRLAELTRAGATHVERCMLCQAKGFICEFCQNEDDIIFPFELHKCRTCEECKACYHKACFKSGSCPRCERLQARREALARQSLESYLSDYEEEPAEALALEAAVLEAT

binding [2]: binds
Molecule: WIPI3 (endogenous, MEFs) (from UniProt Q9CR39 1-344)

binding [4]: binds
B3: WIPI2 (endogenous, MEFs) (protein, UniProt Q80W47 1-445)
chain: MNLASQSGEAGAGQLLFANFNQDNTSLAVGSKSGYKFFSLSSVDKLEQIYECTDTEDVCIVERLFSSSLVAIVSLKAPRKLKVCHFKKGTEICNYSYSNTILAVKLNRQRLIVCLEESLYIHNIRDMKVLHTIRETPPNPAGLCALSINNDNCYLAYPGSASIGEVQVFDTINLRAANMIPAHDSPLAALAFDASGTKLATASEKGTVIRVFSIPEGQKLFEFRRGVKRCVSICSLAFSMDGMFLSASSNTETVHIFKLEAVREKPPEEPTTWTGYFGKVLMASTSYLPSQVTEMFNQGRAFATVRLPFCGHKNICSLTTIQKIPRLLVGASDGYLYMYNLDPQEGGECALMRQHRLDGSMETTSEIVDSASHDCPLATQTYGTAAAKGAYVPSSPTRLGKGQDANLEAYTDDLGAVGGACLEDEASALRLDEDSEHPPMILRTD

binding [5]: binds
B4: WIPI2 (endogenous, HeLa Kyoto) (protein, UniProt Q9Y4P8 1-454)
chain: MNLASQSGEAGAGQLLFANFNQDNTEVKGASRAAGLGRRAVVWSLAVGSKSGYKFFSLSSVDKLEQIYECTDTEDVCIVERLFSSSLVAIVSLKAPRKLKVCHFKKGTEICNYSYSNTILAVKLNRQRLIVCLEESLYIHNIRDMKVLHTIRETPPNPAGLCALSINNDNCYLAYPGSATIGEVQVFDTINLRAANMIPAHDSPLAALAFDASGTKLATASEKGTVIRVFSIPEGQKLFEFRRGVKRCVSICSLAFSMDGMFLSASSNTETVHIFKLETVKEKPPEEPTTWTGYFGKVLMASTSYLPSQVTEMFNQGRAFATVRLPFCGHKNICSLATIQKIPRLLVGAADGYLYMYNLDPQEGGECALMKQHRLDGSLETTNEILDSASHDCPLVTQTYGAAAGKGTYVPSSPTRLAYTDDLGAVGGACLEDEASALRLDEDSEHPPMILRTD

The next lines start with the molecule.

Molecule: IST1 (endogenous, MEFs) (from UniProt Q9CX00 1-362)
binding [1]: binds

Molecule: HRS (endogenous, MEFs) (from UniProt Q99LI8 1-775)
binding [1]: binds

B1: VPS4B (endogenous, MEFs) (protein, UniProt P46467 1-444)
chain: MASTNTNLQKAIDLASKAAQEDKAGNYEEALQLYQHAVQYFLHVVKYEAQGDKAKQSIRAKCTEYLDRAEKLKEYLKKKEKKPQKPVKEEQSGPVDEKGNDSDGEAESDDPEKKKLQNQLQGAIVIERPNVKWSDVAGLEGAKEALKEAVILPIKFPHLFTGKRTPWRGILLFGPPGTGKSYLAKAVATEANNSTFFSISSSDLVSKWLGESEKLVKNLFQLARENKPSIIFIDEIDSLCGSRSENESEAARRIKTEFLVQMQGVGVDNDGILVLGATNIPWVLDSAIRRRFEKRIYIPLPEAHARAAMFRLHLGSTQNSLTEADFQELGRKTDGYSGADISIIVRDALMQPVRKVQSATHFKKVRGPSRADPNCIVNDLLTPCSPGDPGAIEMTWMDVPGDKLLEPVVSMWDMLRSLSSTKPTVNEQDLLKLKKFTEDFGQEG
binding [3]: binds

B2: VTA1 (endogenous, MEFs) (protein, UniProt Q9CR26 1-309)
chain: MAALAPLPPLPAQFKSIQHHLRTAQEHDKRDPVVAYYCRLYAMQTGMKIDSKTPECRKFLSKLMDQLEALKKQLGDNEAVTQEIVGCAHLENYALKMFLYADNEDRAGRFHKNMIKSFYTASLLIDVITVFGELTDENVKHRKYARWKATYIHNCLKNGETPQAGPVGIEEENDVEENEDVGATSLPTQPPQPSSSSAYDPSNLAPGSYSGIQIPPGAHAPANTPAEVPHSTGVTSNAVQPSPQTVPAAPAVDPDLYTASQGDIRLTPEDFARAQKYCKYAGSALQYEDVGTAVQNLQKALRLLTTGRE
binding [3]: binds
